Measurements published in publication PMC8660775.
Results are given in words; binding and its absence hold for the method and conditions named. In cells and extracts the contact can be indirect. Some results given as binding are weak or reduced against the parent protein; the word gives no strength.

Target: T1, Adiponectin receptor 1 (ADIPOR1), endogenous in iPSC-derived RPE (human (endogenous in iPSC-derived RPE)) (UniProt Q96A54)
T1 sequence: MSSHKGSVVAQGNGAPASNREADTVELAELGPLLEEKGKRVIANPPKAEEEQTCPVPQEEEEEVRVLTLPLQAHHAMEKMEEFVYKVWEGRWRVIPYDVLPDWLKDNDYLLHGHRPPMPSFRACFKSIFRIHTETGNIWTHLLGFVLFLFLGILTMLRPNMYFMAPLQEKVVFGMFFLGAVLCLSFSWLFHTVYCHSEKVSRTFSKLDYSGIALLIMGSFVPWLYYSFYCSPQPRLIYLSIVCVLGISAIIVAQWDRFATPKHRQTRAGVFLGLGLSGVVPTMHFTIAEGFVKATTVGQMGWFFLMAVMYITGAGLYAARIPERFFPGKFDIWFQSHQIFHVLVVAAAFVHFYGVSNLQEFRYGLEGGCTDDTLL
Assay: co-IP; plasma membrane preps of iRPE (9 million cells) resuspended in TBST (PBS + 0.5% Triton); anti-AdipoR1 (Santa Cruz D-9, 10 ug) on Dynabeads protein G; CTRP5 detected by Western blot; controls: matching isotype IgG and beads only

binding: binds
B1: CTRP5 (C1q/TNF-related protein 5), endogenous in iPSC-derived RPE (ligand, UniProt Q9BXJ0 16-243)
chain: SPPLDDNKIPSLCPGHPGLPGTPGHHGSQGLPGRDGRDGRDGAPGAPGEKGEGGRPGLPGPRGDPGPRGEAGPAGPTGPAGECSVPPRSAFSAKRSESRVPPPSDAPLPFDRVLVNEQGHYDAVTGKFTCQVPGVYYFAVHATVYRASLQFDLVKNGESIASFFQFFGGWPKPASLSGGAMVRLEPEDQVWVQVGVGDYIGIYASIKTDSTFSGFLVYSDWHSSPVFA
